Results as given in patent publication US20230241088A1, “COMPOSITION FOR PREVENTING OR TREATING LUNG CANCER COMPRISING ORTHO-TOPOLIN RIBOSIDE AS ACTIVE INGREDIENT” (CHUNG-ANG UNIVERSITY INDUSTRY-ACADEMY COOPERATION FOUNDATION, priority 2022, published 2023).
Some entries share one result that the patent states for a list of compounds. At least one structure is not confirmed: it was looked up by name or label, or the drawing left a doubt.

System: NSCLC cells
Test: MTT cell viability assay, NSCLC cells overall
Format: cell-based, Human
Details: 48 hours, 5 NSCLC cell lines
Method: Human NSCLC cell lines A549, H1437, H2087, H522, and HCC827 were obtained from the Korean Cell Line Bank (KCLB, Seoul, Korea). These cells were cultured in RPMI-1640 medium (Gibco, N.Y., USA) supplemented with 10% FBS (Gibco) and 1% penicillin-streptomycin (HyClone Laboratories, Logan, Utah, USA). All cell lines were cultured under standard conditions (5% CO2, humid environment, 37° C.). A549 cells were seeded at a density of 1×10^4 cells/well and H1437, H2087, H522, HCC827, and MRCS cells at a density of 2×10^4 cells/well in 96-well plates and were cultured until cells reach approximately 70-80% confluency. The NSCLC cells were treated with plant hormones for 48 hours. Stock solution of each plant hormone was diluted with culture medium, wherein concentrations of DMSO, water, methanol, and ethanol in the culture medium were below 1% (v/v). The half-maximal inhibitory concentration (IC50) was calculated using CompuSyn software (ComboSyn Inc., Paramus, N.J., USA).
The inhibitory effect of plant hormones and their derivatives was investigated on 5 NSCLC cell lines (A549, H1437, H2087, H522, and HCC827). The NSCLC cells were treated with ABA, Cor, ethephon, GR-24, IAA, KR, MJ, N6b, N6i, oTR, and SS-HCS at concentrations of 0.1, 0.5, 1, 5, 10, 50, and 100 μM. Cell viability and IC50 values for 48 hours were investigated by performing the MTT assay.

OC[C@H]1O[C@@H](n2cnc3c(NCc4ccccc4O)ncnc32)[C@H](O)[C@@H]1O [oTR, ortho topolin riboside]
IC50: < 100 µM
